The values below come from article PMC12800308.

Sequences of proteins named here, by UniProt entry; tags and fusion partners are left off.
UniProt Q01094: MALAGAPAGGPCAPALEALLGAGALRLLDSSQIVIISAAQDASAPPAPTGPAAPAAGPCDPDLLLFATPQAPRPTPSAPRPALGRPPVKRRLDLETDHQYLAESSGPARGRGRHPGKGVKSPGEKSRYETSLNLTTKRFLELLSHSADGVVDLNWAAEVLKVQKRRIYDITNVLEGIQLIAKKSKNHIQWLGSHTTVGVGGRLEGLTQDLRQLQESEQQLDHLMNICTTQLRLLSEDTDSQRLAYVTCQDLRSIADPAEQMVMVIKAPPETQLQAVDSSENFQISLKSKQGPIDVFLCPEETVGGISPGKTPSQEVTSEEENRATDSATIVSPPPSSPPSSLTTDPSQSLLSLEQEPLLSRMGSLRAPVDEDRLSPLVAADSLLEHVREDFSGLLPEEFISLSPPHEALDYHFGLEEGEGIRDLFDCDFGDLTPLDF
UniProt O75530: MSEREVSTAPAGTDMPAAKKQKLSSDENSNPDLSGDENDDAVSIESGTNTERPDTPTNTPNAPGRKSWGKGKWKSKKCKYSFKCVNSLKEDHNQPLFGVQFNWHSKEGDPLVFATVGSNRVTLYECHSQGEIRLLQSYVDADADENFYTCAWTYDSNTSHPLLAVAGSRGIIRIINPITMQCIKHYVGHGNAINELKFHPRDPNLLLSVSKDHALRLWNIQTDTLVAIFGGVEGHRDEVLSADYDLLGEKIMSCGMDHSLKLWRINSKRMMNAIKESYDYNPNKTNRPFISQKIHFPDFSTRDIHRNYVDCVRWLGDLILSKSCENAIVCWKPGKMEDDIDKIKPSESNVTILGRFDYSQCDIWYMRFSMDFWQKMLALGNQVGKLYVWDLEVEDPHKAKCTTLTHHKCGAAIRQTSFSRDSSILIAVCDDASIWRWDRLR
UniProt Q15022: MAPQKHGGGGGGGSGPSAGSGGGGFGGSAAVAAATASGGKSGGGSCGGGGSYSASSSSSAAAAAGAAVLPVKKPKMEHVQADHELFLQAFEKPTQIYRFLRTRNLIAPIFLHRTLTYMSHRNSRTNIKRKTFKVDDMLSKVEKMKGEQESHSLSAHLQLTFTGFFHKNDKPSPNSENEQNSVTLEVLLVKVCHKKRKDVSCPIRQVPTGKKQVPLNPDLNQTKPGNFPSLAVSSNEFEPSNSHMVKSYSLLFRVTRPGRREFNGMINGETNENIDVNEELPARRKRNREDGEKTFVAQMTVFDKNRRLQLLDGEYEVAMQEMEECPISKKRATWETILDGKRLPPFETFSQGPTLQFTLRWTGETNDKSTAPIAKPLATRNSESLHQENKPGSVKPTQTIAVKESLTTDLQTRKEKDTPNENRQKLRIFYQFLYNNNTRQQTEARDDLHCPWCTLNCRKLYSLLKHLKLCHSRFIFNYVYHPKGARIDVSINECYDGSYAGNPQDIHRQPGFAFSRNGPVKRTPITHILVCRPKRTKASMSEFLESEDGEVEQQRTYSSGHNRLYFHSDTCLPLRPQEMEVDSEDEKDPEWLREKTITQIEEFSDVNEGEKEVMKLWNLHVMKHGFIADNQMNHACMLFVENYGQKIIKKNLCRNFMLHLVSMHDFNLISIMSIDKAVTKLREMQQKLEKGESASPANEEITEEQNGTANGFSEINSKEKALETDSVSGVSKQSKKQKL

These are yes or no findings as the source states them, for the method shown. In cells and extracts the contact can be indirect.

This test addresses E2F1 (human (all cell lines of the paper are human)) (UniProt Q01094). The test can be described thus: co-IP; E2F1 and PRC2 components (Fig. 2j); cells, bait and tags not stated; same IP buffers.

With EED (from UniProt O75530 1-441), the binding result was “no binding”.

Take SUZ12 (from UniProt Q15022 1-739): the binding result is “no binding”.
